Values from PubChem BioAssay AID1259329 (Drosophila RNAi Screening Center, 2017).

Test: 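Vehicle-only control for knock-down screens on manganese or zinc toxicity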
Cell system: Drosophila S2R+ cells
Reagents: long dsRNA against Drosophila genes
Duration: 5 days (4 days knock-down, then 1 day after water)
Treatment: water added as vehicle control, no metal, one day before read-out
Measurement: 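Luciferase-based total ATP per well, read one day after adding water without metal following 4 days knock-down, given as z-score averaged across duplicate plates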
Direction: mean ATP z-score: higher = more total ATP, likely more viable cells
Call rule: 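a reagent counts as active if its z-score is greater than 1.5 or less than -1.5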
This is one part, drawn at random, of 418 reagents tested. In the full data, 20 (4.8%) are marked active. 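All active calls have high ATP; no reagent fell below -1.5.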 Unmarked entries are inactive. The numbers tell different reagents against one gene apart. Reagent sequences are not shown. Not stated in the record: the amount of reagent, the dose of the treatment.

| Gene | reagent no. | mean ATP z-score |
| --- | --- | --- |
| Sap-r (Saposin-related) | 1 | -0.299 |
| Sap-r (Saposin-related) | 2 | 0.534 |
| CG12355 | 1 | 0.566 |
| CG12355 | 2 | -0.328 |
| sbm (sobremesa) | 1 | 0.272 |
| sbm (sobremesa) | 2 | -0.242 |
| Agps (Alkylglycerone phosphate synthase) | 1 | -0.651 |
| Agps (Alkylglycerone phosphate synthase) | 2 | 1.52 (active) |
| Agps (Alkylglycerone phosphate synthase) | 3 | -0.891 |
| CG33128 | 1 | -0.775 |
| CG33128 | 2 | -1.04 |
| Muc11A (Mucin 11A) | 1 | 1.11 |
| CG7408 | 1 | 0.149 |
| Abcd1 (ATP binding cassette subfamily D member 1) | 1 | 1.92 (active) |
| Abcd1 (ATP binding cassette subfamily D member 1) | 2 | -0.506 |
| Npc2g (Niemann-Pick type C-2g) | 1 | -0.33 |
| Gnpat (Glyceronephosphate O-acyltransferase) | 1 | 0.085 |
| Gnpat (Glyceronephosphate O-acyltransferase) | 2 | 2.6 (active) |
| Hgsnat (Heparan-alpha-glucosaminide N-acetyltransferase) | 1 | -0.844 |
| Hgsnat (Heparan-alpha-glucosaminide N-acetyltransferase) | 2 | -0.155 |
| Hgsnat (Heparan-alpha-glucosaminide N-acetyltransferase) | 3 | 0.356 |
| Pex10 (Peroxin 10) | 1 | 0.269 |
| Pex10 (Peroxin 10) | 2 | 0.417 |
| cathD (cathepsin D) | 1 | 1.33 |
| CG14777 | 1 | 1.77 (active) |
| CG14777 | 2 | -0.767 |
| Wdr24 (WD repeat domain 24) | 1 | -0.0365 |
| Wdr24 (WD repeat domain 24) | 2 | -1.07 |
| Hacl (2-hydroxyacyl-CoA lyase) | 1 | -1.19 |
| Hacl (2-hydroxyacyl-CoA lyase) | 2 | -0.204 |
| CtsL1 (Cathepsin L1) | 1 | 0.364 |
| CtsL1 (Cathepsin L1) | 2 | -0.292 |
| CtsL1 (Cathepsin L1) | 3 | -1.2 |
| Vha36-1 (Vacuolar H[+] ATPase 36kD subunit 1) | 1 | 1.49 |
| Vha36-1 (Vacuolar H[+] ATPase 36kD subunit 1) | 2 | -0.079 |
| Npc1a (Niemann-Pick type C-1a) | 1 | -0.657 |
| Npc1a (Niemann-Pick type C-1a) | 2 | -0.634 |
| Npc1a (Niemann-Pick type C-1a) | 3 | 0.346 |
| Vha100-4 (Vacuolar H[+] ATPase 100kD subunit 4) | 1 | -0.025 |
| Vha100-4 (Vacuolar H[+] ATPase 100kD subunit 4) | 2 | 1.1 |
| Lamp1 | 1 | -1.21 |
| Lamp1 | 2 | -1.49 |
| Lamp1 | 3 | -1.34 |
| VhaM9.7-c (Vacuolar H[+] ATPase M9.7 subunit c) | 1 | -0.64 |
| VhaM9.7-c (Vacuolar H[+] ATPase M9.7 subunit c) | 2 | 1.59 (active) |
| Acsl (Acyl-CoA synthetase long-chain) | 1 | 0.226 |
| Acsl (Acyl-CoA synthetase long-chain) | 2 | 0.0161 |
| AP-1mu (Adaptor Protein complex 1, mu subunit) | 1 | -0.0179 |
| AP-1mu (Adaptor Protein complex 1, mu subunit) | 2 | -0.552 |
| Bace (beta-site APP-cleaving enzyme) | 1 | 0.444 |
| Bace (beta-site APP-cleaving enzyme) | 2 | -1.03 |
| Bace (beta-site APP-cleaving enzyme) | 3 | -1.07 |
| Coprox (Coproporphyrinogen oxidase) | 1 | -0.0188 |
| Coprox (Coproporphyrinogen oxidase) | 2 | 0.307 |
| PMP34 (Peroxisomal Membrane Protein 34) | 1 | 0.136 |
| PMP34 (Peroxisomal Membrane Protein 34) | 2 | 0.0375 |
| Pex2 (Peroxin 2) | 1 | -0.733 |
| Pex2 (Peroxin 2) | 2 | -0.927 |
| CG31928 | 1 | 0.0371 |
| Gbp2 (Growth-blocking peptide 2) | 1 | 1.1 |
| CG15533 | 1 | -0.605 |
| CG15533 | 2 | 1.14 |
| TrpRS-m (Tryptophanyl-tRNA synthetase, mitochondrial) | 1 | 0.623 |
| TrpRS-m (Tryptophanyl-tRNA synthetase, mitochondrial) | 2 | -0.168 |
| CG15534 | 1 | 0.249 |
| CG15534 | 2 | -0.194 |
| Vha100-5 (Vacuolar H[+] ATPase 100kD subunit 5) | 1 | 0.394 |
| Vha100-5 (Vacuolar H[+] ATPase 100kD subunit 5) | 2 | -0.584 |
| Vha100-5 (Vacuolar H[+] ATPase 100kD subunit 5) | 3 | -0.385 |
| ScpX | 1 | 0.0702 |
| Vha68-1 (Vacuolar H[+] ATPase 68kD subunit 1) | 1 | 0.788 |
| Vha68-1 (Vacuolar H[+] ATPase 68kD subunit 1) | 2 | -0.969 |
| Vha68-1 (Vacuolar H[+] ATPase 68kD subunit 1) | 3 | 0.922 |
| Vps16B (Vacuolar protein sorting 16B) | 1 | -0.19 |
| Vps16B (Vacuolar protein sorting 16B) | 2 | -0.497 |
| Vps16B (Vacuolar protein sorting 16B) | 3 | -1.01 |
| CG17597 | 1 | -1.17 |
| CG17597 | 2 | -1.27 |
| CG9577 | 1 | 0.52 |
| CG9577 | 2 | -0.0584 |

Copied from above for reference:
| Gene | reagent no. | mean ATP z-score |
| --- | --- | --- |
| Abcd1 (ATP binding cassette subfamily D member 1) | 1 | 1.92 (active) |
| Abcd1 (ATP binding cassette subfamily D member 1) | 2 | -0.506 |
| Npc2g (Niemann-Pick type C-2g) | 1 | -0.33 |
| Gnpat (Glyceronephosphate O-acyltransferase) | 1 | 0.085 |
| Gnpat (Glyceronephosphate O-acyltransferase) | 2 | 2.6 (active) |
| Hgsnat (Heparan-alpha-glucosaminide N-acetyltransferase) | 1 | -0.844 |

More records:
| Gene | reagent no. | mean ATP z-score |
| --- | --- | --- |
| CG3961 | 1 | 1.7 (active) |
| CG3961 | 2 | 1.38 |
| CG3961 | 3 | 0.573 |
| Vps28 (Vacuolar protein sorting 28) | 1 | 0.397 |
| Vps28 (Vacuolar protein sorting 28) | 2 | -0.231 |
| Vps28 (Vacuolar protein sorting 28) | 3 | -0.817 |
| Chc (Clathrin heavy chain) | 1 | -0.655 |
| Chc (Clathrin heavy chain) | 2 | 1.59 (active) |
| Chc (Clathrin heavy chain) | 3 | -0.885 |
| Acox57D-d (acyl-Coenzyme A oxidase at 57D distal) | 1 | 0.199 |
| Acox57D-d (acyl-Coenzyme A oxidase at 57D distal) | 2 | 0.0202 |
| CG10474 | 1 | 0.479 |
| beta-Man (beta-Mannosidase) | 1 | 1.08 |
| beta-Man (beta-Mannosidase) | 2 | -0.149 |
| Mpcp2 | 1 | 0.0492 |
| Mpcp2 | 2 | -0.255 |
| CG6508 | 1 | 1.33 |
| Pex16 (Peroxin 16) | 1 | -0.103 |
| mnd (minidiscs) | 1 | -0.611 |
| mnd (minidiscs) | 2 | -0.0377 |
| Daao1 (D-amino acid oxidase 1) | 1 | 0.82 |
| AP-1-2beta (Adaptor Protein complex 1/2, beta subunit) | 1 | -1.4 |
| AP-1-2beta (Adaptor Protein complex 1/2, beta subunit) | 2 | -0.787 |
| AP-1-2beta (Adaptor Protein complex 1/2, beta subunit) | 3 | 0.264 |
| CatB (Catalase B) | 1 | 0.972 |
| CatB (Catalase B) | 2 | -0.217 |
| CatB (Catalase B) | 3 | -0.247 |
| ACC (Acetyl-CoA carboxylase) | 1 | 1.6 (active) |
| ACC (Acetyl-CoA carboxylase) | 2 | -0.608 |
| ACC (Acetyl-CoA carboxylase) | 3 | -0.633 |
| Vha26 (Vacuolar H[+]-ATPase 26kD subunit) | 1 | 0.0846 |
| Vha26 (Vacuolar H[+]-ATPase 26kD subunit) | 2 | -0.517 |
| Vha26 (Vacuolar H[+]-ATPase 26kD subunit) | 3 | -0.852 |
| CG12672 | 1 | 0.374 |
| Parp1 (Poly-(ADP-ribose) polymerase 1) | 1 | 0.565 |
| Parp1 (Poly-(ADP-ribose) polymerase 1) | 2 | 0.832 |
| Parp1 (Poly-(ADP-ribose) polymerase 1) | 3 | -1.11 |
| Vps33B (Vacuolar protein sorting 33B) | 1 | 0.0499 |
| Vps33B (Vacuolar protein sorting 33B) | 2 | 0.209 |
| wat (waterproof) | 1 | 0.152 |
| wat (waterproof) | 2 | -0.855 |
| Vha100-1 (Vacuolar H[+] ATPase 100kD subunit 1) | 1 | 1.04 |
| Vha100-1 (Vacuolar H[+] ATPase 100kD subunit 1) | 2 | -0.201 |
| Vha100-1 (Vacuolar H[+] ATPase 100kD subunit 1) | 3 | -0.544 |
| CG1607 | 1 | -0.68 |
| CG1607 | 2 | -1.49 |
| CG3902 | 1 | 1.06 |
| CG3902 | 2 | -0.543 |
| Dhrs4 (Dehydrogenase/reductase 4) | 1 | -0.752 |
| Npc2b (Niemann-Pick type C-2b) | 1 | 0.454 |
| Npc1b (Niemann-Pick type C-1b) | 1 | -0.409 |
| Npc1b (Niemann-Pick type C-1b) | 2 | -0.711 |
| Npc1b (Niemann-Pick type C-1b) | 3 | 1.12 |
| Xpc (Xeroderma pigmentosum, complementation group C) | 1 | 0.973 |
| Sod1 (Superoxide dismutase 1) | 1 | -0.185 |
| Sod1 (Superoxide dismutase 1) | 2 | 0.38 |
| Sod1 (Superoxide dismutase 1) | 3 | -0.781 |
| CG14767 | 1 | 0.946 |
| CG14767 | 2 | -0.357 |
| Gba1a (Glucocerebrosidase 1a) | 1 | 0.594 |
